In paper PMC4013626:
Results are given in words; binding and its absence hold for the method and conditions named. For some assays here: In cells and extracts the contact can be indirect. Some binding calls cover weakened binding; strength is not graded here.

By UniProt entry, the sequences of proteins in these tests, tags left out.
UniProt Q13304: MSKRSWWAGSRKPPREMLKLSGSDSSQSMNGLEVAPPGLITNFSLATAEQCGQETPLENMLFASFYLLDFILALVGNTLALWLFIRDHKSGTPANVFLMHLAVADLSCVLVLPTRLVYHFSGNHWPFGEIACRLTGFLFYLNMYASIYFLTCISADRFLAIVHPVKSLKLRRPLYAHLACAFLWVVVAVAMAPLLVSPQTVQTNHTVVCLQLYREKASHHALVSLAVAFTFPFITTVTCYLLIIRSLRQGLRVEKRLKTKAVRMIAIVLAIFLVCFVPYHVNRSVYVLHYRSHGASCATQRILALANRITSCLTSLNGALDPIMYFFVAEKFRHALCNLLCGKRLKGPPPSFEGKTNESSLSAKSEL
UniProt Q09QM4: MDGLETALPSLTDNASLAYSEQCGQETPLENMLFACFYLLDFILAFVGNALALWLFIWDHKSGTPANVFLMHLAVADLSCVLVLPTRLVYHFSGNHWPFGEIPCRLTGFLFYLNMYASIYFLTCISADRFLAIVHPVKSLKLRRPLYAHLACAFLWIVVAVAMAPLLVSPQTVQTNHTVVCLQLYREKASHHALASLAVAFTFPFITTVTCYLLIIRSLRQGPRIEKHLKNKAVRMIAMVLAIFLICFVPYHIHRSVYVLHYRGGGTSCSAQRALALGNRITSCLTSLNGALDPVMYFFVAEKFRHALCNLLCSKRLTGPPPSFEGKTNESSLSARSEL
UniProt P49407: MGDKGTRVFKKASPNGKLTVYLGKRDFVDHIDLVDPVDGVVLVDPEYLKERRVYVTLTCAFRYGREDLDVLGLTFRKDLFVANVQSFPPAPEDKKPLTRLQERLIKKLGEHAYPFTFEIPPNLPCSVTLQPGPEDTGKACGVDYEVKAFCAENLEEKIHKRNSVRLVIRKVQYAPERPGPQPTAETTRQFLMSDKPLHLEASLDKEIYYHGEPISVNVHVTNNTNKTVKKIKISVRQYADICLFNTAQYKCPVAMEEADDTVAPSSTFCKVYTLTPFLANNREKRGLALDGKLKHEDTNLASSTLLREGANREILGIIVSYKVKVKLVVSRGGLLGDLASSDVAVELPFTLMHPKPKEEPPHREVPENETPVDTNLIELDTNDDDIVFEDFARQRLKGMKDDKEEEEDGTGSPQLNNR
UniProt P32121: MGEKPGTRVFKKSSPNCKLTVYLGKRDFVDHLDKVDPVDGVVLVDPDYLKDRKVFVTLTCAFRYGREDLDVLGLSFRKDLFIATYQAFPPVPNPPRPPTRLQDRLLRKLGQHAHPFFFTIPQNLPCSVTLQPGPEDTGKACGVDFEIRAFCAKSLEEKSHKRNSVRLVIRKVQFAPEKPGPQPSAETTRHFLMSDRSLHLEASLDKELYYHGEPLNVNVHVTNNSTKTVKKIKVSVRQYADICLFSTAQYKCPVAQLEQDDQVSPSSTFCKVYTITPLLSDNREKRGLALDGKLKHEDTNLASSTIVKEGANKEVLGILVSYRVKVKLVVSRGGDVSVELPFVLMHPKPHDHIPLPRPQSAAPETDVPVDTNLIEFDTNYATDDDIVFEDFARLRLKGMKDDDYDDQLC
UniProt P25098: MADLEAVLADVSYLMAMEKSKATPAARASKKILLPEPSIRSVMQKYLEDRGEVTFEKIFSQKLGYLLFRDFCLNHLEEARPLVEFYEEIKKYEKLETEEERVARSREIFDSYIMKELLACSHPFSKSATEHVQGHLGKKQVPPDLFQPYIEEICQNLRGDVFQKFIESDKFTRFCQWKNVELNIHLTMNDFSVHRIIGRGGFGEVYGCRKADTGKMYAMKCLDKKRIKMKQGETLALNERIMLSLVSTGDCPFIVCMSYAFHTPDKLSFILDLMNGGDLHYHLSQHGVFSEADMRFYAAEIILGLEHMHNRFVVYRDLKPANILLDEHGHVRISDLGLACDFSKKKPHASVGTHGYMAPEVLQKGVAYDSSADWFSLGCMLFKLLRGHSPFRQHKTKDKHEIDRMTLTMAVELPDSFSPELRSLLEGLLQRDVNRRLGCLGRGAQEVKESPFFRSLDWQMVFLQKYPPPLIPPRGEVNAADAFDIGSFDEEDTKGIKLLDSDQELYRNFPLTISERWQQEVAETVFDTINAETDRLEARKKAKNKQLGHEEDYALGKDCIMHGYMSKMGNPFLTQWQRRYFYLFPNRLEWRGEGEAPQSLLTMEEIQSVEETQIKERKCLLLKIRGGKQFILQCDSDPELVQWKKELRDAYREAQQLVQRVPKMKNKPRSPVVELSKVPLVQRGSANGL
UniProt P26817: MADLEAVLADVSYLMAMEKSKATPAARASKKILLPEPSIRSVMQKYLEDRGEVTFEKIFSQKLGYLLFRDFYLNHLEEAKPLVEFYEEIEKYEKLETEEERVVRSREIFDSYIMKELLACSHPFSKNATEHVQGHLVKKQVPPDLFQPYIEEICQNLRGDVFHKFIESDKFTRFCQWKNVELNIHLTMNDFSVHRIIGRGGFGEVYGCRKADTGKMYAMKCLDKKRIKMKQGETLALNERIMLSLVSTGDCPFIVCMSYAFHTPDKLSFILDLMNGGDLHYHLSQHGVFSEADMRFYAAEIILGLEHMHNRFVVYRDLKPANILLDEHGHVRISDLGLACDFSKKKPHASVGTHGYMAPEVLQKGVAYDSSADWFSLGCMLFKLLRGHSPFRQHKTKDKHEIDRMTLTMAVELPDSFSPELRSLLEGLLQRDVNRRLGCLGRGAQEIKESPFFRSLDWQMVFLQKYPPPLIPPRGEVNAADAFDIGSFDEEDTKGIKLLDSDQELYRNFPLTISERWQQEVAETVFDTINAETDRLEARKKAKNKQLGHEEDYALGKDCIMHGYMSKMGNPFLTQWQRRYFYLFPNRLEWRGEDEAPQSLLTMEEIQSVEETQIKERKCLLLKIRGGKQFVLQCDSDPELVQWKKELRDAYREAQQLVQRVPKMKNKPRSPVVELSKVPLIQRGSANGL
UniProt P34947: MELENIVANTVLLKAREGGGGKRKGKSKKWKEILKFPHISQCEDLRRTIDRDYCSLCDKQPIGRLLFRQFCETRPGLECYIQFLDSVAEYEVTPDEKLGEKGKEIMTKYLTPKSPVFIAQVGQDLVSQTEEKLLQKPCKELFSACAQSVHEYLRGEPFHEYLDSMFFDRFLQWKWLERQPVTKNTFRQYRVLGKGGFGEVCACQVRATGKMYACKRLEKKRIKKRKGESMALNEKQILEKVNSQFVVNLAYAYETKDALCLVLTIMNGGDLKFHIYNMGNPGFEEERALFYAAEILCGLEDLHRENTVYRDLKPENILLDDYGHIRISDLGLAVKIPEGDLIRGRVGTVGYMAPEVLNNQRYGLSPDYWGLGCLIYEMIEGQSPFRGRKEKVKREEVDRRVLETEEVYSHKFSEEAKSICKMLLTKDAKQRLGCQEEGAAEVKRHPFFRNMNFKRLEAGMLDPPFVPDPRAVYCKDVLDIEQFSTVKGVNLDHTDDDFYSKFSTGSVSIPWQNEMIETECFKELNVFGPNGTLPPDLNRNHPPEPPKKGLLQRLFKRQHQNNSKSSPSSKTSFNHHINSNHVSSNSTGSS
UniProt Q62833: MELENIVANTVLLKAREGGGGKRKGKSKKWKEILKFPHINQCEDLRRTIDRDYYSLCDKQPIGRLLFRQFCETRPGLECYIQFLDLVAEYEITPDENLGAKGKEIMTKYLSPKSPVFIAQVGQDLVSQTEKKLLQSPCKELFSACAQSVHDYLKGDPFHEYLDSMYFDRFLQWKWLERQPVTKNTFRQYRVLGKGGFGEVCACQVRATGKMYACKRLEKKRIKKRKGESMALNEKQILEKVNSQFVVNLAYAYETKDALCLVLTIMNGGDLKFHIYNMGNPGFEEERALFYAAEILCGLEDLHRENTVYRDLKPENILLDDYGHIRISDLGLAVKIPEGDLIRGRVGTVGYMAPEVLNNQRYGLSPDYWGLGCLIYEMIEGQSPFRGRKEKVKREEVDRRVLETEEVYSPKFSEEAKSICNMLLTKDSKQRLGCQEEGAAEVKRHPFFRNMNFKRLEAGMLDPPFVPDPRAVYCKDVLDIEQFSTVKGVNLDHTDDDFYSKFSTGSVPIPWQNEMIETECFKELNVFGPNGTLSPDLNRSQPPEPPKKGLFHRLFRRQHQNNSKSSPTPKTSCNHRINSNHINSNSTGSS

Experiments:
HA Tag-GPR17 [1] = biological target: HA Tag-GPR17 (UniProt Q13304); test: co-IP; 1321N1 HA Tag-GPR17 cells, RIPA lysate (1 mg), immunoprecipitation with anti-HA Tag antibody, blot with anti-GRK2 or anti-GRK5; cells basal, 100 μM UDP-glucose or 100 nM LTD4 for 5 min
HA Tag-GPR17 [2] = biological target: HA Tag-GPR17 (UniProt Q13304); test: ELISA; sandwich immunoenzymatic assay on crude lysates (10 μg) of 1321N1 HA Tag-GPR17 cells; HA Tag-GPR17 captured on wells coated with anti-HA Tag antibody, partner detected with its primary antibody, HRP secondary, TMB, A450; cells basal, 100 μM UDP-glucose or 100 nM LTD4 for 5 min (UDP-glucose also 30 min)
[3] = biological target: GPR17 (native, primary oligodendrocyte precursor cells) (rat (endogenous in primary OPCs)) (UniProt Q09QM4); test: ELISA; sandwich immunoenzymatic assay on crude lysates (10 μg) of primary OPCs; GPR17 captured on wells coated with anti-N terminus GPR17 antibody, partner detected with its primary antibody, HRP secondary, TMB, A450; cells basal, 5 μM UDP-glucose or 50 nM LTD4 for 5 min (UDP-glucose also 30 min)
[4] = biological target: GPR17 (native, primary oligodendrocyte precursor cells) (rat (endogenous in primary OPCs)) (UniProt Q09QM4); test: co-IP; primary OPCs, RIPA lysate (1 mg), immunoprecipitation with home-made rabbit anti-GPR17 antibody, blot with anti-GRK2 or anti-GRK5; cells basal, 5 μM UDP-glucose or 50 nM LTD4 for 5 min
[5] = biological target: β-arrestin1 (1321N1 cells) (human (endogenous in 1321N1)) (UniProt P49407); test: condition: only cells treated with 100 nM LTD4 for 30 min; co-IP; as a5, 1321N1 HA Tag-GPR17 cells treated with 100 nM LTD4 for 30 min
[6] = biological target: β-arrestin2 (1321N1 cells) (human (endogenous in 1321N1)) (UniProt P32121); test: as above
[7] = biological target: β-arrestin1 (1321N1 cells) (human (endogenous in 1321N1)) (UniProt P49407); test: co-IP; 1321N1 HA Tag-GPR17 cells, RIPA lysate (1.5 mg), immunoprecipitation with anti-β-arrestin antibodies, blot with anti-HA Tag (the legend tells the reverse order); cells basal, 100 μM UDP-glucose (5 or 30 min) or 100 nM LTD4 (5 min)
[8] = biological target: β-arrestin2 (1321N1 cells) (human (endogenous in 1321N1)) (UniProt P32121); test: as above
HA Tag-GPR17 [9] = biological target: HA Tag-GPR17 (UniProt Q13304); test: condition: only cells treated with 100 nM LTD4 for 30 min; ELISA; as a1, 1321N1 HA Tag-GPR17 cells treated with 100 nM LTD4 for 30 min

GRK2 (1321N1 cells) (from UniProt P25098 1-689) (enzyme)
binding (HA Tag-GPR17 [1]): binds
binding (HA Tag-GPR17 [2]): binds

GRK2 (primary OPCs) (from UniProt P26817 1-689) (enzyme)
binding [3]: binds
binding [4]: binds

GRK5 (1321N1 cells) (from UniProt P34947 1-590) (enzyme)
binding (HA Tag-GPR17 [1]): binds
binding (HA Tag-GPR17 [2]): binds

GRK5 (primary OPCs) (from UniProt Q62833 1-590) (enzyme)
binding [3]: binds
binding [4]: binds

HA Tag-GPR17 (from UniProt Q13304 1-367) (receptor)
binding [5]: no binding
binding [6]: no binding
binding [7]: binds
binding [8]: binds

β-arrestin1 (1321N1 cells) (from UniProt P49407 1-418)
binding (HA Tag-GPR17 [9]): no binding
binding (HA Tag-GPR17 [2]): binds
